Values of other authors as cited in patent publication US6143325A, “Nefazodone dosage form” (priority 1999, dated 2000).

Conditions: hydrophilic matrix extended-release formulation, relative to fasted state; cited from earlier work

## COC(=O)C1=C(C)NC(C)=C(C(=O)OC)C1c1ccccc1[N+](=O)[O-] [nifedipine]
  increase of area under the curve (AUC) in the fed state: 75%
